{"source": "patent US12258321B1", "about": "(University of Jeddah, priority 2024, dated 2025)", "test_system": "MCF-7 cells", "test": "MTT cytotoxicity test on MCF-7 breast cancer cells", "format": "cell-based", "conditions": "Homo sapiens, MCF7, 24 h, read-out: IC50, cytotoxic activity against MCF7 breast cancer cells", "protocol": "The MCF-7 breast cancer cell lines were purchased from VACSERA Tissue Culture Unit (Giza, Egypt). MCF-7 cells were cultured in RPMI medium supplemented with 2 mM glutamine and 10% fetal bovine serum. Both cell cultures included […] streptomycin and 100 units/ml penicillin and were kept in a humidified atmosphere with 5% CO2 at 37° C.\nAs an indicator of cytotoxic activity, cell viability was determined using the MTT [(3-(4,5-dimethylthiazol-2-yl)-2,5-diphenyltetrazolium bromide] assay according to the instructions provided by the manufacturer. Briefly, MCF-7 cells were plated at 5×10^3 cells/well in 96-well plates. Cells were treated with test compounds or Staurosporine at 0.01, 0.1, 1.0, 10 and 100 M concentrations for 24 h. The plates were read at 570 nm. Denoted data are the means of the three experiments. IC50 values were calculated by nonlinear regression analysis using Graph Pad Prism version 5 for windows (Graph Pad Inc., CA, USA). All experiments were performed in triplicate. Data were given as mean±SD."}
{"molecule": "CN[C@@H]1C[C@H]2O[C@@](C)([C@@H]1OC)n1c3ccccc3c3c4c(c5c6ccccc6n2c5c31)C(=O)NC4", "note": "[Staurosporine, reference compound]", "values": [{"measurement": "IC50", "value": 5.69, "unit": "µM"}]}
